*1 amine or outer side, *2 acyl side, *3 side chain or, on linkers, in order; H or OH if unused. Where a SMILES comes first, the peptide text is derived from it. Bridges are numbered along the chain shown (N, C = ends). [ ]: non-standard residue; d: D form. The star is where a group is joined. Orn(4R-OH,5R-OCH2CH2NMe3+) = C[N+](C)(C)CCO[C@@H](N[*:3])[C@H](O)C[C@H](N[*:1])C(=O)[*:2]; pTerphenylCO(4''-OnC5H11) = CCCCCOc1ccc(-c2ccc(-c3ccc(C(=O)*)cc3)cc2)cc1; Orn(4R-OH,5R-OH) = O=C([C@H](C[C@@H](O)[C@@H](O)N[*:3])N[*:1])[*:2]; Pro(3S-OH,4S-Me) = C[C@H]1CN[C@H](C(=O)O)[C@H]1O; hTyr(3R-OH) = N[C@H](C(=O)O)[C@H](O)Cc1ccc(O)cc1; Hyp = O=C(O)[C@@H]1C[C@@H](O)CN1
System: panel of 50 strains of C. albicans and C. glabrata
Experiment: MIC comparison of dehydroxy derivative versus parent across the strain panel
Format: cell-based

Row | SMILES | share of echinocandin-resistant strains against which derivative is 2-fold better than parent (1 vs ANF) [%] | share of echinocandin-resistant strains against which derivative is 4-fold more potent than parent (1 vs ANF) [%] | share of echinocandin-resistant strains against which activity is similar to that of parent (1 vs ANF, 2 vs RZF) [%] | share of echinocandin-resistant strains against which derivative is 8-fold more potent than parent (1 vs ANF, 2 vs RZF) [%] | share of echinocandin-resistant strains against which derivative is 16-fold more potent than parent (1 vs ANF, 2 vs RZF) [%] | share of strains in the entire tested panel against which antifungal activity is improved relative to parent (1 vs ANF, 2 vs RZF) [%] | share of echinocandin-resistant strains against which derivative is 2- to 4-fold more potent than parent (2 vs RZF) [%]
1 | CCCCCOc1ccc(-c2ccc(-c3ccc(C(=O)N[C@H]4C[C@@H](O)[C@@H](O)NC(=O)[C@@H]5[C@@H](O)[C@@H](C)CN5C(=O)[C@H]([C@@H](C)O)NC(=O)[C@H]([C@H](O)Cc5ccc(O)cc5)NC(=O)[C@@H]5C[C@@H](O)CN5C(=O)[C@H]([C@@H](C)O)NC4=O)cc3)cc2)cc1 [Compound 1, dehydroxy-ANF] ({pTerphenylCO(4''-OnC5H11)}-[Orn(4R-OH,5R-OH)]T[Hyp][hTyr(3R-OH)]T[Pro(3S-OH,4S-Me)]; lactam 1-C) | 21 | 26 | 37 | 8 | 8 | 68 | 
2 | CCCCCOc1ccc(-c2ccc(-c3ccc(C(=O)N[C@H]4C[C@@H](O)[C@@H](OCC[N+](C)(C)C)NC(=O)[C@@H]5[C@@H](O)[C@@H](C)CN5C(=O)[C@H]([C@@H](C)O)NC(=O)[C@H]([C@H](O)Cc5ccc(O)cc5)NC(=O)[C@@H]5C[C@@H](O)CN5C(=O)[C@H]([C@@H](C)O)NC4=O)cc3)cc2)cc1 [Compound 2, dehydroxy-RZF] ({pTerphenylCO(4''-OnC5H11)}-[Orn(4R-OH,5R-OCH2CH2NMe3+)]T[Hyp][hTyr(3R-OH)]T[Pro(3S-OH,4S-Me)]; lactam 1-C) |  |  | 29 | 21 | 21 | 72 | 29

Source: article PMC8991007, “Benzylic Dehydroxylation of Echinocandin Antifungal Drugs Restores Efficacy against Resistance Conferred by Mutated Glucan Synthase” (Journal of the American Chemical Society, 2022)
